The list shows a part of the results, in another mix than the full data. Activity calls are given as the source filed them.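 How the source made its calls: active means fitted curve reaches -35% activity change at a concentration below twice the top valid dose tested; inactive means the rest, including effects opposite to the expected direction.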
Assay: A673 Ewing sarcoma viability loss – cell-based, CellTiter-Glo luminescence, cherry-pick retest, confirmation (AID 720587)
Conditions: CellTiter-Glo ATP luminescence, 72 h, at 26 µM (top of the series)

SMILES: O=S(=O)(c1ccc2nc(SCc3cccc(Cl)c3)[nH]c2c1)N1CCOCC1
- activity change, negative = cytotoxicity: inactive: -3.63%

From PubChem BioAssay AID720587 (Broad Institute, 2013)
